This note sets out measurements from PubChem BioAssay AID330 (DTP/NCI, 2004).

In this assay the test system is P388 leukemia ip, CD2F1 mice, survival T/C. In words: NCI In Vivo Anticancer Drug Screen. Data for tumor model P388 Leukemia (intraperitoneal) in CD2F1 (CDF1) mice. Particulars: T/C endpoint: median survival time, higher T/C = longer survival.
Where [1] appears, read: dose: 25.0 mg/kg/injection, schedule: Q04DX002 (ip), vehicle: saline with Tween-80.
Setting [2] is: dose: 50.0 mg/kg/injection, schedule: Q01DX009 (ip), vehicle: Klucel (hydroxypropylcellulose) (HPC).
[3] abbreviates: dose: 100.0 mg/kg/injection, schedule: Q01DX009 (ip), vehicle: Klucel (hydroxypropylcellulose) (HPC).
[4] abbreviates: dose: 200.0 mg/kg/injection, schedule: Q01DX009 (ip), vehicle: Klucel (hydroxypropylcellulose) (HPC).
Setting [5] is: dose: 25.0 mg/kg/injection, schedule: Q04DX003 (ip), vehicle: Klucel (hydroxypropylcellulose) (HPC).
Setting [6] is: dose: 200.0 mg/kg/injection, schedule: Q01DX009 (ip), vehicle: saline.
[7] abbreviates: dose: 240.0 mg/kg/injection, schedule: Q01DX005 (ip), vehicle: Klucel (hydroxypropylcellulose) (HPC).

The list shows only some results of the screen, not a fair sample: it gathers tests that were run many times, whatever their T/C, doses with no T/C, and many T/C values between a quarter and a half above the control. Further doses and runs are listed elsewhere. T/C gives the treated animals as a percentage of the vehicle group. Some doses have a count of surviving animals in place of a T/C: the source files T/C as zero there, which appears to mark a toxic dose or a test without result, not a measured value. Some doses without a T/C left all or most animals alive at the check, yet need not have been tolerated: survival well below the control is almost never listed, so the zero probably covers shortened survival too. Survivors were counted at the toxicity check, usually on the fifth day, unless a day is given; later deaths do not show. Schedules are NCI's codes, read here as Q, the interval in days (D) or hours (H), X, the number of doses. Some entries hold several experiments; the values are given in rising order. Where survival is the endpoint, the PubChem record calls one and a half times the control and up active, and a quarter to a half above the control has no call in these data; cut-offs in other NCI protocols can differ. Some T/C values carry the count of animals alive at the toxicity check (mostly the fifth day); where none is given, no animal had died by that day.

As to `CCCCCCCCCCCCN1C(C)=CS/C1=C\C=C\c1scc(C)[n+]1CCCCCCCCCCCC`, the T/C is, setting by setting: (dose: 0.75 mg/kg/injection, schedule: Q01DX005 (ip), vehicle: saline with Tween-80) 129 % of control; (dose: 1.5 mg/kg/injection, schedule: Q01DX005 (ip), vehicle: saline with Tween-80) 133 and 144 % of control; (dose: 1.56 mg/kg/injection, schedule: Q04DX002 (ip), vehicle: saline with Tween-80) 125 and 144 % of control; (dose: 3.0 mg/kg/injection, schedule: Q01DX005 (ip), vehicle: saline with Tween-80) 149 % of control; (dose: 3.13 mg/kg/injection, schedule: Q04DX002 (ip), vehicle: saline with Tween-80) 140 % of control; (dose: 6.25 mg/kg/injection, schedule: Q04DX002 (ip), vehicle: saline with Tween-80) 144 % of control [5 of 6 alive]. For the same molecule, the T/C by setting is: (dose: 12.5 mg/kg/injection, schedule: Q04DX002 (ip), vehicle: saline with Tween-80) 144 % of control [4 of 6 alive]; under setting [1], 142 % of control [5 of 6 alive]. Also, the survivor count (dose: 6.0 mg/kg/injection, schedule: Q01DX005 (ip), vehicle: saline with Tween-80) is reported as 6 of 6; the survivor count (dose: 12.0 mg/kg/injection, schedule: Q01DX005 (ip), vehicle: saline with Tween-80) is 4 of 6 and 6 of 6; the survivor count under setting [1] is 5 of 6 and 6 of 6; the survivor count (dose: 50.0 mg/kg/injection, schedule: Q04DX002 (ip), vehicle: saline with Tween-80) was 3 of 6; the survivor count (dose: 100.0 mg/kg/injection, schedule: Q04DX002 (ip), vehicle: saline with Tween-80) is 1 of 6; the survivor count (dose: 200.0 mg/kg/injection, schedule: Q04DX002 (ip), vehicle: saline with Tween-80) is given as 0 of 6.
With `Cc1cc(N(CCOS(C)(=O)=O)CCOS(C)(=O)=O)ccc1C=O`, the survivor count reads like this: (dose: 25.0 mg/kg/injection, schedule: Q01DX009 (ip), vehicle: Klucel (hydroxypropylcellulose) (HPC)) 6 of 6; under setting [2], 4 of 6 and 6 of 6; under setting [3], 1 of 6; under setting [4], 0 of 6.
For `CC1N2CCc3ccccc3C2C2c3ccccc3CCN21` (stereo not drawn), the survivor count was 0 of 6 (dose: 100.0 mg/kg/injection, schedule: Q01DX001 (ip), vehicle: suspension in saline) and 0 of 6 (dose: 200.0 mg/kg/injection, schedule: Q01DX001 (ip), vehicle: suspension in saline).
Regarding `COc1cccc2c1C(=O)c1c(O)c3c(c(O)c1C2=O)C[C@@](O)(C(C)O)C[C@@H]3OC1CC(N2CCC(OC)CC2)C(O)C(C)O1` (stereo partly drawn), the T/C (dose: 6.25 mg/kg/injection, schedule: Q04DX003 (ip), vehicle: water) was 130 % of control and the T/C (dose: 25.0 mg/kg/injection, schedule: Q04DX003 (ip), vehicle: water) was 126 % of control.
On to `COc1cccc2c1C(=O)c1c(O)c3c(c(O)c1C2=O)C[C@@](O)(C(=O)CO)C[C@@H]3OC1CC(OC(C)=O)C(OC(C)=O)C(C)O1` (stereo partly drawn), for which the T/C reads like this: (dose: 12.5 mg/kg/injection, schedule: Q04DX003 (ip), vehicle: distilled water + Tween-80) 137 % of control; (dose: 100.0 mg/kg/injection, schedule: Q04DX003 (ip), vehicle: distilled water + Tween-80) 125 % of control.
Turning to `N#CC1C(=O)NC(=O)C(C#N)C12CCCCC2` (stereo not drawn), the survivor count (dose: 400.0 mg/kg/injection, schedule: Q04DX003 (ip), vehicle: saline with Tween-80) is 4 of 6.
`Cn1ccc2c1CC(=O)NC2=O`: the T/C under setting [5] is 126 % of control. Further, the survivor count is given as 0 of 6 under setting [5]; 0 of 6 (dose: 50.0 mg/kg/injection, schedule: Q04DX003 (ip), vehicle: Klucel (hydroxypropylcellulose) (HPC)); 0 of 6 (dose: 100.0 mg/kg/injection, schedule: Q04DX003 (ip), vehicle: Klucel (hydroxypropylcellulose) (HPC)); 1 of 6 (dose: 200.0 mg/kg/injection, schedule: Q04DX003 (ip), vehicle: Klucel (hydroxypropylcellulose) (HPC)); 5 of 6 (dose: 400.0 mg/kg/injection, schedule: Q04DX003 (ip), vehicle: Klucel (hydroxypropylcellulose) (HPC)).
As for `NC(CCl)=NCc1ccccc1`, the survivor count is, setting by setting: (dose: 60.0 mg/kg/injection, schedule: Q01DX005 (ip), vehicle: saline) 5 of 6; (dose: 120.0 mg/kg/injection, schedule: Q01DX005 (ip), vehicle: saline) 0 of 6; (dose: 240.0 mg/kg/injection, schedule: Q01DX005 (ip), vehicle: saline) 0 of 6.
For `CC1C2Cc3ccc(O)cc3C1(C)CCN2Cc1ccoc1` (stereo not drawn), the survivor count under setting [6] was 0 of 6.
For `CC1(C)CNC(=S)O1`, the survivor count runs as follows: under setting [2], 0 of 6; under setting [3], 0 of 6; under setting [4], 0 of 6; (dose: 400.0 mg/kg/injection, schedule: Q01DX009 (ip), vehicle: Klucel (hydroxypropylcellulose) (HPC)) 0 of 6.
Take `O=[N+]([O-])c1ccc(/C(=C/c2ccccc2)S(=O)(=O)C(Cl)(Cl)Cl)o1`: the T/C (dose: 100.0 mg/kg/injection, schedule: Q01DX009 (ip), vehicle: suspension in saline) was 147 % of control. For the same molecule, the survivor count (dose: 200.0 mg/kg/injection, schedule: Q01DX009 (ip), vehicle: suspension in saline) is 3 of 6.
For the molecule `COc1cc([N+](=O)[O-])cc2c1OC1(C=C2)Oc2ccccc2N1C` (stereo not drawn), the survivor count is, setting by setting: (dose: 60.0 mg/kg/injection, schedule: Q01DX005 (ip), vehicle: Klucel (hydroxypropylcellulose) (HPC)) 1 of 6; under setting [7], 5 of 6.
On to `COC1CCC(Sc2cccc[n+]2CC(C)=O)CC1OC` (stereo not drawn), for which the survivor count (dose: 200.0 mg/kg/injection, schedule: Q01DX005 (ip), vehicle: saline with Tween-80) was 0 of 5.
`C=C1C(O)C2(O)OCC34C(CC5C(C)=CC(=O)C(O)C5(C)C23)OC(=O)C(O)C14O` (stereo not drawn): the survivor count (dose: 12.5 mg/kg/injection, schedule: Q01DX009 (ip), vehicle: saline) is reported as 3 of 6 and the survivor count (dose: 25.0 mg/kg/injection, schedule: Q01DX009 (ip), vehicle: saline) was 0 of 6.
Consider `COc1ccc2c(c1OC)C(=O)O[C@@H]2[C@H]1c2c(cc3c(c2OC)OCO3)CCN1C`, for which the survivor count is, setting by setting: (dose: 31.3 mg/kg/injection, schedule: Q01DX010 (ip), vehicle: saline) 6 of 6; (dose: 250.0 mg/kg/injection, schedule: Q01DX010 (ip), vehicle: saline) 4 of 6.
`O=C1Nc2ccc(Cl)cc2C1=O`: the T/C under setting [3] is 126 % of control.
For the molecule `CCCCCCCCCCCCCCCCCCOP(=O)([O-])OCC[N+](C)(C)C`, the survivor count reads like this: (dose: 50.0 mg/kg/injection, schedule: Q01DX009 (ip), vehicle: saline) 5 of 6 and 6 of 6; (dose: 100.0 mg/kg/injection, schedule: Q01DX009 (ip), vehicle: saline) 0 of 6; under setting [6], 0 of 6.
`COc1cc2c(cc1OC(C)=O)C(=O)C(Br)CCC2` (stereo not drawn): the survivor count (dose: 400.0 mg/kg/injection, schedule: Q01DX009 (ip), vehicle: saline with Tween-80) is reported as 6 of 6.
On to `NC1=C(O)C(=O)C(c2ccc3c(c2)CCC3)O1` (stereo not drawn), for which the survivor count under setting [7] is listed as 6 of 6.
As to `CCOC(=O)Nc1cc2c(c(N)n1)N=C(CN(C)c1ccccc1)CN2`, where the note is “dose: 12.5 mg/kg/injection, schedule: Q01DX009 (ip), vehicle: Klucel (hydroxypropylcellulose) (HPC)”, the T/C was 126 % of control. The survivor count is reported as 6 of 6 under setting [2] and 3 of 10 (dose: 150.0 mg/kg/injection, schedule: Q01DX001 (ip), vehicle: Klucel (hydroxypropylcellulose) (HPC)).
For the molecule `N#C/C(=C\c1ccc([N+](=O)[O-])o1)[N+](=O)[O-]`, the survivor count under setting [6] was 0 of 6.
